According to patent US8329720B1 (Pisgah Laboratories, Inc., priority 2007, dated 2012):

Columns and labels:
[1] = Intrinsic dissolution profile as a function of pH; type: physicochemical; conditions: 0.1N HCl (pH 1), pH 4.5 acetate buffer, pH 6.8 phosphate buffer, water; 37° C.; result in words
Experimental: The opioid salts of the present invention were tested to determine their dissolution profile as a function of pH, and as a function of ethanol concentration in acidic media (dose dumping). To perform these experiments the buffered dissolution media and acidic ethanol solutions were prepared as identified herein, “Preparation of Solutions”. The test procedure was derived from the procedures cited in the United States Pharmacopeia and National Formulary (USP), numbers <1087> and <711>. The dose dumping procedure was adopted from the United States Food and Drug Administration's guidance regarding the dose dumping of oxymorphone. The sampling interval and regimen was defined and each sample analyzed by HPLC. Results from the HPLC analyses were plotted as a function of time and dissolution condition (FIG. 37 through FIG. 97 inclusive, and FIGS. 102-105, 109, 110, 114 and 115). This procedure was used to obtain the pH and dose dumping dissolution profiles disclosed herein. […] All activities within the procedure were conducted and executed for each of the compounds reported herein. Unless otherwise stated HPLC measurements were done and reported at ambient temperature and dissolution testing was done nominally at 37° C. […]

[2] = Intrinsic dissolution dose dumping profile (ethanol concentration in acidic media, FDA protocol); type: physicochemical; conditions: 0.1N HCl with 0, 5, 20 and 40% ethanol; result in words
Excerpt: A general overview of this concern may be found at http://www.fda.gov/ohrms/dockets/AC/05/slides/2005-4187S2—02_Hussain.ppt. This Oct. 26, 2005 overview presentation by the deputy director OPS/CDER of the FDA and entitled “Preventing Alcohol Induced Dose Dumping is a Desired Product Design Feature” describes the dose-dumping phenomenon. Dose dumping can be employed by those with the deliberate intention of abusing the drug, but may also occur during the normal/moderate consumption of alcohol while taking a prescribed medication. Simply, dose dumping is that condition “in which the complete dose may be more rapidly released from the dosage form than intended, creating a potential safety risk”. Clearly, with the opioid narcotics, dose dumping for the intention of experiencing the “high” or rush, may have severe, even deadly consequences. The presentation further categorizes the results from dose dumping testing as either vulnerable, rugged or uncertain. […]
The opioid salts of the present invention were tested to determine their dissolution profile as a function of pH, and as a function of ethanol concentration in acidic media (dose dumping). […] The sampling interval and regimen was defined and each sample analyzed by HPLC. […]

Row | SMILES | pH dissolution profile [1] | dose dumping dissolution profile [2]
1 | CN1CC[C@]23c4c5ccc(O)c4O[C@H]2[C@@H](O)C=C[C@H]3[C@H]1C5.O=S(=O)(O)O [morphine sulfate, reference compound] | immediate release (IR) characteristics | 
2 | CN1CC[C@]23c4c5ccc(O)c4O[C@H]2C(=O)CC[C@H]3[C@H]1C5.Cl [hydromorphone hydrochloride, reference compound] | immediate release (IR) characteristics | exhibit dose dumping propensities
